PubChem BioAssay AID1259405 | NCATS | 2018

Screen: 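Silenced genes that increase secreted GFP made by CHO cells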 (primary screen)
Cell system: Chinese hamster CHO-K1 ovary cells with stable secreted eGFP expression
Reagents: single siRNA against mouse genes, 0.8 pmol siRNA per well (2 µl of 400 nM stock)
Duration: 3 days
Read-out: 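Per-well intracellular GFP measured by laser scanning cytometry, plus viability from ATP luminescence, each relative to plate median of non-targeting control wells, in %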
Scale: GFP, % of control: higher = more GFP per well, higher productivity; viability (ATP), % of control: higher = more viable cells (more ATP)
Active means: 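a knock-down is called active if GFP reaches 120% or more of non-targeting control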
Shown is an unselected part of about 50,000 reagents. Of all reagents, about 4,000 (8%) got an active call. 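Mouse siRNA library applied to hamster cells; one well for each siRNA.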 Reagents against one gene are numbered here.

| gene | reagent no. | GFP, % of control | viability (ATP), % of control | Outcome |
| --- | --- | --- | --- | --- |
| G930045G22Rik | 1 | 71.3 | 54.7 | inactive |
| G930045G22Rik | 2 | 28.2 | 12 | inactive |
| G930045G22Rik | 3 | 54.8 | 56 | inactive |
| Glycam1 | 1 | 62.9 | 70.1 | inactive |
| Glycam1 | 2 | 44.6 | 43 | inactive |
| Glycam1 | 3 | 90.2 | 86 | inactive |
| B3gnt9 | 1 | 34.9 | 44.4 | inactive |
| B3gnt9 | 2 | 70.8 | 86.1 | inactive |
| B3gnt9 | 3 | 52.9 | 32.5 | inactive |
| Tacc1 | 1 | 122 | 73.7 | active |
| Tacc1 | 2 | 66.7 | 63.1 | inactive |
| Tacc1 | 3 | 83.8 | 103 | inactive |
| Polr2c | 1 | 60.3 | 54.4 | inactive |
| Polr2c | 2 | 67.2 | 116 | inactive |
| Polr2c | 3 | 66.8 | 43.1 | inactive |
| Sox11 | 1 | 91.3 | 80.5 | inactive |
| Sox11 | 2 | 27.1 | 29.5 | inactive |
| Sox11 | 3 | 83 | 99 | inactive |
| Dynll2 | 1 | 26.4 | 23.8 | inactive |
| Dynll2 | 2 | 71.3 | 99.9 | inactive |
| Pla2g3 | 1 | 43.9 | 59 | inactive |
| Pla2g3 | 2 | 90.1 | 78.6 | inactive |
| Pla2g3 | 3 | 56.8 | 63 | inactive |
| C1rl | 1 | 61.2 | 62.1 | inactive |
| C1rl | 2 | 142 | 30 | active |
| C1rl | 3 | 78 | 68.4 | inactive |
| Crhr2 | 1 | 79.5 | 85.4 | inactive |
| Crhr2 | 2 | 49 | 67.2 | inactive |
| Crhr2 | 3 | 44.7 | 35 | inactive |
| Harbi1 | 1 | 68.9 | 96.8 | inactive |
| Harbi1 | 2 | 71.1 | 74.6 | inactive |
| Harbi1 | 3 | 105 | 50.4 | inactive |
| Lrfn1 | 1 | 149 | 137 | active |
| Lrfn1 | 2 | 119 | 65.4 | inactive |
| Lrfn1 | 3 | 106 | 78.8 | inactive |
| Ubiad1 | 1 | 117 | 88.3 | inactive |
| Ubiad1 | 2 | 82.3 | 80.9 | inactive |
| Ubiad1 | 3 | 54.6 | 68.5 | inactive |
| Ppp1r16a | 1 | 75.5 | 68.1 | inactive |
| Ppp1r16a | 2 | 36.3 | 23.4 | inactive |
| Ppp1r16a | 3 | 82.6 | 96 | inactive |
| Ovol2 | 1 | 68.3 | 57.2 | inactive |
| Ovol2 | 2 | 87 | 83.3 | inactive |
| Ovol2 | 3 | 55.8 | 71.5 | inactive |
| Etf1 | 1 | 67.4 | 74.3 | inactive |
| Etf1 | 2 | 59.8 | 50.3 | inactive |
| Etf1 | 3 | 85.3 | 29.5 | inactive |
| Rprd2 | 1 | 120 | 98.4 | active |
| Rprd2 | 2 | 20 | 21.3 | inactive |
| Rprd2 | 3 | 68.6 | 85.7 | inactive |
| 2510039O18Rik | 1 | 87.1 | 66.2 | inactive |
| 2510039O18Rik | 2 | 120 | 112 | active |
| 2510039O18Rik | 3 | 77.9 | 60 | inactive |
| Clps | 1 | 48 | 54.5 | inactive |
| Clps | 2 | 108 | 88.5 | inactive |
| Gm4952 | 1 | 72.2 | 80.8 | inactive |
| Gm4952 | 2 | 78.6 | 81 | inactive |
| Gm4952 | 3 | 60.7 | 54 | inactive |
| Tspoap1 | 1 | 59.6 | 40.7 | inactive |
| Tspoap1 | 2 | 78.5 | 89.2 | inactive |
| Tspoap1 | 3 | 118 | 102 | inactive |
| Trmt112 | 1 | 85 | 102 | inactive |
| Trmt112 | 2 | 98.3 | 84.1 | inactive |
| Trmt112 | 3 | 51.8 | 31.3 | inactive |
| Ube2e1 | 1 | 86.8 | 89.6 | inactive |
| Ube2e1 | 2 | 52.8 | 52.9 | inactive |
| Ube2e1 | 3 | 88.6 | 128 | inactive |
| Fubp1 | 1 | 58 | 60.3 | inactive |
| Fubp1 | 2 | 95.2 | 88.7 | inactive |
| Fubp1 | 3 | 89.2 | 65.7 | inactive |
| Igflr1 | 1 | 71.6 | 41.8 | inactive |
| Igflr1 | 2 | 108 | 75.3 | inactive |
| Igflr1 | 3 | 103 | 83.9 | inactive |
| Myo7b | 1 | 46.8 | 60 | inactive |
| Myo7b | 2 | 74.6 | 80.2 | inactive |
| Myo7b | 3 | 76.5 | 66.6 | inactive |
| Fdxacb1 | 1 | 44.9 | 68.6 | inactive |
| Fdxacb1 | 2 | 68 | 85.2 | inactive |
| Fdxacb1 | 3 | 107 | 55.8 | inactive |
| Psg17 | 1 | 40.4 | 56.6 | inactive |
| Psg17 | 2 | 65.9 | 71.5 | inactive |
| Psg17 | 3 | 78.4 | 106 | inactive |
| Brf1 | 1 | 96.4 | 96.5 | inactive |
| Brf1 | 2 | 112 | 97.8 | inactive |

Limited to “GFP, % of control” (8 entries from above):
Ppp1r16a #3	82.6
Ovol2 #1	68.3
Ovol2 #2	87
Ovol2 #3	55.8
Etf1 #1	67.4
Etf1 #2	59.8
Etf1 #3	85.3
Rprd2 #1	120
